Source: PubChem BioAssay AID686943 (Drosophila RNAi Screening Center, 2013)

Assay: 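Search across the genome for regulators of signalling from receptor tyrosine kinase to ERK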 (primary screen)
System: Drosophila S2R+ haemocyte-like cells expressing YFP-tagged ERK (Rolled)
Reagent: long dsRNA against Drosophila genes
Treatment: insulin stimulation versus unstimulated cells; dose and duration not given
Read-out: 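Antibody staining for doubly phosphorylated ERK divided by ERK-YFP signal, as plate z-scores, in insulin-treated and untreated cells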
Reading the numbers: replicate 1, z-score of dpERK with insulin: higher = more active ERK per ERK-YFP after insulin
In all, the deposit lists about 23,000 reagents; below is an unselected part of those that have a named target and a result. 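Extra replicates exist only for a retested subset of genes; insulin dose and duration not given; both raised and lowered dpERK matter.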 Further read-outs or replicates are left out here. Not stated in the record: the amount of reagent, the time to read-out.

Knock-down of CG13004 [DRSC19523] came out at: replicate 1, z-score of dpERK with insulin 0.58. Against Kah [DRSC07887], the values are replicate 1, z-score of dpERK with insulin 0.32. With knock-down of Kah [DRSC08515], the screen gave replicate 1, z-score of dpERK with insulin -0.38. Vha36-3 [DRSC18615] gave replicate 1, z-score of dpERK with insulin -0.65. For Sidpn [DRSC02056], the entry reads replicate 1, z-score of dpERK with insulin 0.07. Against CG13575 [DRSC04211], the values are replicate 1, z-score of dpERK with insulin 0.64.

After knock-down of CG13575 [DRSC22851] the results were replicate 1, z-score of dpERK with insulin 0.79. Silencing of ppk29 [DRSC04205] resulted in: replicate 1, z-score of dpERK with insulin 0.11. CG11249 [DRSC11645] scored replicate 1, z-score of dpERK with insulin -0.51. With knock-down of Sar1 [DRSC17049], the screen gave replicate 1, z-score of dpERK with insulin 0.52. For Sar1 [DRSC22115], the entry reads replicate 1, z-score of dpERK with insulin 0.36. After knock-down of Rev1 [DRSC08264] the results were replicate 1, z-score of dpERK with insulin -0.4.

With knock-down of mRpS9 [DRSC12645], the screen gave replicate 1, z-score of dpERK with insulin -0.24. With knock-down of mRpS9 [DRSC15456], the screen gave replicate 1, z-score of dpERK with insulin -0.64. For CG5681 [DRSC02876], the values are replicate 1, z-score of dpERK with insulin 0.97. CG14627 [DRSC18630] showed replicate 1, z-score of dpERK with insulin -0.88. Rh2 [DRSC16821] showed replicate 1, z-score of dpERK with insulin 0.68. With knock-down of CG10467 [DRSC09728], the screen gave replicate 1, z-score of dpERK with insulin 0.29.

Sptr [DRSC18719] scored replicate 1, z-score of dpERK with insulin -0.46. CG10793 [DRSC17760] scored replicate 1, z-score of dpERK with insulin 0.08. Mst57Da [DRSC16744] showed replicate 1, z-score of dpERK with insulin 0.68. Silencing of CG10013 [DRSC14175] resulted in: replicate 1, z-score of dpERK with insulin -0.11. Against CG4613 [DRSC10435], the values are replicate 1, z-score of dpERK with insulin 0.78. dpr14 [DRSC17767] showed replicate 1, z-score of dpERK with insulin 1.01.

After knock-down of CG12730 [DRSC17885], the screen gave replicate 1, z-score of dpERK with insulin 0.11. With knock-down of CG43295 [DRSC09416] the results were replicate 1, z-score of dpERK with insulin 0.1. Silencing of Gnmt [DRSC15987] resulted in: replicate 1, z-score of dpERK with insulin -0.03. With knock-down of FucT6 [DRSC19848], the screen gave replicate 1, z-score of dpERK with insulin -0.67. Dnali1 [DRSC16158] showed replicate 1, z-score of dpERK with insulin -0.01. xit [DRSC18364] scored replicate 1, z-score of dpERK with insulin 0.77.

After knock-down of CG4928 [DRSC19342], the record shows replicate 1, z-score of dpERK with insulin 0.18.

Part of the list above, reformatted.
CG5681 [DRSC02876]
- replicate 1, z-score of dpERK with insulin: 0.97

CG14627 [DRSC18630]
- replicate 1, z-score of dpERK with insulin: -0.88

Rh2 [DRSC16821]
- replicate 1, z-score of dpERK with insulin: 0.68
